Experimental data: paper PMC9192210
These are yes or no findings as the source states them, for the method shown. Binding seen in cells or lysates may run through a third protein. Some binding calls cover weakened binding; strength is not graded here.

Sequences of proteins named here, by UniProt entry; tags and fusion partners are left off. Residues count along the entry.
UniProt P63165, residues 1-97: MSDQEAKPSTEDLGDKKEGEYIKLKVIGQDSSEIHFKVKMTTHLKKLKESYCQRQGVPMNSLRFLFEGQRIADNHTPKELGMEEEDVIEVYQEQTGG
UniProt P63166, residues 1-97: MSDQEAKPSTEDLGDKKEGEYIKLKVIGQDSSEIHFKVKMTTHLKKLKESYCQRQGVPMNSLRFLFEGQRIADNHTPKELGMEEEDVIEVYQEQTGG
UniProt Q13485: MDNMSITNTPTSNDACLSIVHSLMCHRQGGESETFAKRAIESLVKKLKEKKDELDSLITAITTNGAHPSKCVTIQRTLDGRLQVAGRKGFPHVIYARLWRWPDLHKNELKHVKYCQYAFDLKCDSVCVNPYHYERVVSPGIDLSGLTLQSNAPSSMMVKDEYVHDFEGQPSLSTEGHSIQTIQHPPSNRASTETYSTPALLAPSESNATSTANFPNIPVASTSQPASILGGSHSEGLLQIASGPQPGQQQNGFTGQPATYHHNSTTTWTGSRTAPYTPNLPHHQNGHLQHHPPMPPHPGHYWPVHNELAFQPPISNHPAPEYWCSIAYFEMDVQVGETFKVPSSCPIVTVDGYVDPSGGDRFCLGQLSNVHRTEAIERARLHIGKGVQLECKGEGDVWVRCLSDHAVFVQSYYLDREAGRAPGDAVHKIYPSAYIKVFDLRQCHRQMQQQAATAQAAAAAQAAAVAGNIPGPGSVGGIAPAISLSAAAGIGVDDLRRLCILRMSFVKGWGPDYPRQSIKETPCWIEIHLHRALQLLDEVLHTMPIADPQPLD
UniProt P97471: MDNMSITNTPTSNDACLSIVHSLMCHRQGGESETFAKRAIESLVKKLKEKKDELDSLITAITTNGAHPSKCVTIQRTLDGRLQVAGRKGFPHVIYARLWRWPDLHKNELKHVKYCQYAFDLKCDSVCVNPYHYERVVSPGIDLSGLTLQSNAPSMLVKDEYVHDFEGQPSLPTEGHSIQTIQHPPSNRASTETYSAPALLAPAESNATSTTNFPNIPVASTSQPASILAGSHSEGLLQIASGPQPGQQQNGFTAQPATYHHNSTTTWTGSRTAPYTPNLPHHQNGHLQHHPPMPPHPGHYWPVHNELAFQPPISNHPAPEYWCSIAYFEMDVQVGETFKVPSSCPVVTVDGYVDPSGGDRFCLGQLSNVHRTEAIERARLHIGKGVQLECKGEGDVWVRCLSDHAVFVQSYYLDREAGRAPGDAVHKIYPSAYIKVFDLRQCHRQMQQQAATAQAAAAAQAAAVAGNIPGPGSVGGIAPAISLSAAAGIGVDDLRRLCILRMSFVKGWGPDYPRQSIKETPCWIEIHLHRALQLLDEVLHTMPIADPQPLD

Assays:
HA-SUMO1 = HA-SUMO1 (UniProt P63165); assay: co-IP; A549 cells transfected with HA-SUMO1, FLAG-SMAD4 and with or without His-SENP1; western blot
[1] = target: SUMO1 (mouse (endogenous in lung tissue)) (UniProt P63166); assay: co-IP; lung tissue lysates of wild-type and SENP1-KO mice (control, BLM, BLM + GA, with TGF-β1); anti-SUMO1, anti-SMAD4 or IgG crosslinked to protein A/G magnetic beads, overnight at 4 °C; western blot

binding (HA-SUMO1) | binding [1] | Substance
binds |  | FLAG-SMAD4 (from UniProt Q13485 1-552)
 | binds | SMAD4 (from UniProt P97471 1-551)
